# According to EP0135379 (dated 1985):
# Assay: general procedure: Boc solid-phase peptide synthesis; chloromethylated polystyrene (Merrifield) resin; benzhydrylamine resin; DCC/HOBt (DCC/DMAP for Pmp)
# Settings: whole synthesis, scale 0.5 mmoles
substance,measurement,value
Pmp-D-Tyr(Et)-Phe-Val-Asn-Cys(OH),isolated mass,65 mg
same,isolated yield,16%
